Among all 340,000 compounds or so, about 6,200 (1.8%) were called active. Inconclusive results, whose numbers are uncertain, are shown with a selection of clear calls. The call rests on the fitted dose curve; in most records, active means well fitted activation curve with a large enough effect; inconclusive means small, poorly fitted or top-dose-only effect; inactive means no such curve, though single readings can be large or run the other way. Potencies beside an inconclusive call are fits to weak or partial responses and may not hold up.
Test: A quantitative high throughput screen for small molecules that induce DNA re-replication in SW480 colon adenocarcinoma cells. Further: nearly all actives have a fitted effect of over 55% in size. On re-replication activation: % of control where 0% means no effect.
Conditions: Hoechst DNA content imaging, 48 h; re-replication activation: at 46.1 µM (top of the series) unless noted
Procedure, shortened: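 Readout is total intensity of Hoechst-stained nuclei, excited at 405 nm and collected at 500-530 nm. Compound treatment lasted 48 hr at 37 C in 5% CO2 before staining.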
For `CN(C)S(=O)(=O)c1ccc(C(=O)Nc2nnc(Cc3ccccc3)s2)cc1`, the Potency was inconclusive: 29.1 µM [activator, single point]. With `CCOC(=O)c1c(-c2cccc([N+](=O)[O-])c2)csc1NC(=O)C1CC1` the “re-replication activation” value was inactive: 19.6%. With `CC(C)[C@H](NC(=O)N1CCn2c1nc1ccccc12)C(=O)NCc1ccc(F)cc1` the Potency was inconclusive: 6.51 µM [activator, single point]. For `CC(C)(C)CC(=O)NC(=S)Nc1ccccc1C(F)(F)F`, the Potency was inconclusive: 23.1 µM [activator, single point]. With `CCC(C)NC(=S)Nc1ccccc1` (configuration not stated) the “re-replication activation” value was inactive: -0.874%. With `S=c1[nH]nc(-c2cccnc2)n1/N=C/C(Cl)=C\c1ccccc1` the Potency was inconclusive: 20.6 µM [activator, single point]. In the case of `CCN1CCN(C(=O)c2cc(=O)c3cc(C)ccc3o2)CC1`, the “re-replication activation” value is reported as inactive: 2.16%. With `COc1ccc(C(=O)NCC(=O)NCC2COc3ccccc3O2)cc1` (configuration not stated) the Potency was inconclusive: 0.708 µM [activator, full curve, poor fit]. In the case of `CC(C)(CNC(=O)c1cc2c(s1)CCCC2)N1CCOCC1`, the “re-replication activation” value is reported as inactive: -0.644%. In the case of `COCCN(C(=O)CSc1nnc(-c2ccc(C(C)(C)C)cc2)n1N)c1c(N)n(CC(C)C)c(=O)[nH]c1=O`, the Potency is reported as inconclusive: 1.03 µM [activator, full curve, poor fit]. For `CCOc1ccc(/C(O)=C2/C(=O)C(=O)N(c3ncccn3)C2c2ccc(Cl)cc2)cc1` (configuration not stated), the Potency was inconclusive: 6.51 µM [activator, single point]. For `COc1cc(/C=N/NC(=O)c2ccccc2NS(=O)(=O)c2cccs2)ccc1O`, the Potency was inconclusive: 0.116 µM [activator, full curve, poor fit]. With `COc1cc(C(=O)Nc2sc3c(c2C#N)CCN(C(C)=O)C3)cc(OC)c1OC` the “re-replication activation” value was inactive: 0.198%. In the case of `O=C(NN=C1CCCCCCCCCCC1)c1ccncc1`, the Potency is reported as inconclusive: 9.2 µM [activator, partial curve, poor fit]. With `COc1cccc(-c2nc(CS(=O)(=O)CC(=O)N3CCc4ccccc4C3)c(C)o2)c1` the Potency was inconclusive: 2.06 µM [activator, partial curve, poor fit]. For `CCC1CCCCN1C(=O)CCCOc1ccccc1` (configuration not stated), the Potency was inconclusive: 23.1 µM [activator, single point]. With `CC(C)c1ccc(C(O)P(=O)(OCc2ccccc2)c2ccc(N(C)C)cc2)cc1` (configuration not stated) the “re-replication activation” value was inactive: 1.94%. In the case of `CC1(C)CC(NC(=O)c2cc([N+](=O)[O-])cc([N+](=O)[O-])c2)CC(C)(C)N1`, the Potency is reported as inconclusive: 4.11 µM [activator, single point]. For `CC1=NN(C(N)=S)C(=O)C1N=Nc1ccc(Cl)cc1` (configuration not stated), the Potency was active: 18.4 µM. For `C/C(=N\NC(=O)c1c(Cl)c(C)nn1C)c1ccc(NC(=O)C2CCC2)cc1`, the Potency was active: 1.84 µM. With `C[n+]1ccc(/C=C/c2c[nH]c3ccc(F)cc23)cc1` the Potency was inconclusive: 1.46 µM [activator, full curve, poor fit]. In the case of `CCN(C[C@H]1N[C@@](CC)(C(=O)OC)[C@H]2C(=O)N(C)C(=O)[C@@H]12)S(=O)(=O)c1ccc(F)cc1`, the “re-replication activation” value is reported as inactive: -58.2%. For `CCOc1ccccc1NC(=O)c1ccccc1-c1ccccc1`, the Potency was inconclusive: 16.4 µM [activator, single point]. With `COc1cc(C2Nc3cccc4cccc(c34)N2)ccc1OC(C)=O` the “re-replication activation” value was inactive: -12.8%. With `CC(Sc1n[nH]c(=O)n1Cc1ccccc1)C(=O)NC1CCCCC1C` (configuration not stated) the “re-replication activation” value was inactive: -0.862%. In the case of `CCc1nnc(NC(=O)c2ccc(S(=O)(=O)N3CCCC(C)C3)cc2)o1` (configuration not stated), the Potency is reported as inconclusive: 20.6 µM [activator, single point]. With `O=C(Nc1ccccn1)c1ccc2c(c1)OCCO2` the Potency was inconclusive: 18.4 µM [activator, partial curve, poor fit]. With `COC(=O)C1(Cc2cc(-c3ccc(OC)cc3OC)no2)CCN(C(=O)OC(C)(C)C)CC1` the “re-replication activation” value was inactive: 27.7%. With `Cc1ccc(C)c(NC(=O)CS(=O)(=O)c2cn(C)c3ccccc23)c1` the Potency was inconclusive: 29.1 µM [activator, single point]. In the case of `O=C(CN1C(=O)C(=O)N(Cc2ccco2)C1=O)c1c[nH]c2ccccc12`, the Potency is reported as inconclusive: 14.6 µM [activator, single point]. With `O=C(CCl)NN1C(=O)NC(c2ccccc2)(c2ccccc2)C1=O` the Potency was inconclusive: 29.1 µM [activator, single point]. In the case of `COc1ccc2sc(-c3ccc(N(C)C)cc3)c(C#CCO)c2c1`, the Potency is reported as inconclusive: 2.06 µM [activator, partial curve, poor fit]. For `O=C(Cc1ccc([N+](=O)[O-])cc1)NC1CCCCCC1`, the Potency was inconclusive: 0.461 µM [activator, full curve, poor fit]. With `CCOc1ncccc1C(=O)OCc1c(Cl)cccc1Cl` the “re-replication activation” value was inactive: -5.59%. For `O=C1NC(=O)/C(=C\c2ccccc2OCc2ccccc2)S1`, the Potency was inconclusive: 4.61 µM [activator, full curve]. For `COCc1nnc(NC(=O)c2ccc(S(=O)(=O)N(C)C3CCCCC3)cc2)o1`, the “re-replication activation” value was inactive: 20.5%. For `COC(=O)C1=CN(CCCN2CCCC2=O)C=C(C(=O)OC)C1c1ccccc1C(F)(F)F`, the Potency was active: 18.4 µM. With `O=C1N[C@@H](Cc2c[nH]c3ccccc23)COC(=O)[C@@H](Cc2ccc(F)cc2)C/C=C\C[C@H]1CC(=O)N(CCO)Cc1ccccc1` the “re-replication activation” value was inactive: -13.9%. In the case of `CC(=O)Nc1ccc(C(=O)Nc2nnc(CCc3ccccc3)s2)cc1`, the Potency is reported as inconclusive: 7.31 µM [activator, partial curve, poor fit]. With `CCOC(=O)c1sc(NC(=O)CSc2nc(C)cc(C)c2C#N)c(C#N)c1C` the “re-replication activation” value was inactive: -3.35%. For `CCOC(=O)c1c(NC(=S)N2CCOCC2)sc(C)c1C`, the “re-replication activation” value was inactive: -5.26%. In the case of `Cc1c(OCc2ccc(C(=O)O)o2)ccc2c3c(c(=O)oc12)CCC3`, the Potency is reported as inconclusive: 6.51 µM [activator, partial curve, poor fit]. In the case of `Cc1c(N=Cc2ccc(Br)s2)cccc1[N+](=O)[O-]`, the “re-replication activation” value is reported as inactive: -6.51%. For `O=C(Nc1nnc(-c2ccccc2)o1)c1cccc(S(=O)(=O)N2CCOCC2)c1`, the Potency was inconclusive: 18.4 µM [activator, single point]. In the case of `CC1CCN(S(=O)(=O)c2ccc(N=NC3=C(O)CC(C)(C)CC3=O)cc2)CC1`, the Potency is reported as inconclusive: 1.03 µM [activator, partial curve, poor fit]. With `CN1C/C(=C/c2ccncc2)C(=O)/C(=C/c2ccncc2)C1` the Potency was active: 23.1 µM. With `C=CC(=O)N1C/C(=C/c2ccc(F)cc2)C(=O)/C(=C\c2ccc(F)cc2)C1` the Potency was active: 1.16 µM. In the case of `CCCCN(C(=O)c1c(C)noc1C)c1c(N)n(CCCC)c(=O)[nH]c1=O`, the “re-replication activation” value is reported as inactive: -3.2%. With `CC1COc2ccccc2N1S(=O)(=O)c1ccc(Cl)cc1` (configuration not stated) the Potency was inconclusive: 29.1 µM [activator, single point]. With `CC(C)(C)c1nnc(N/N=C/c2cc(Br)ccc2O)n(N)c1=O` the Potency was inconclusive: 1.3 µM [activator, full curve]. In the case of `C=C1CCN([C@H](C(=O)NCc2ccc(Cl)cc2)C(C)C)S(=O)(=O)c2ccccc21`, the “re-replication activation” value is reported as inactive: -1.61%. With `O=C(Cc1ccc([N+](=O)[O-])cc1)NCc1cccnc1` the re-replication activation was inactive: -16.9% [at 9.22 µM]. For `COc1ccc(OC)c(-c2nnc3n2N=C(c2ccc(OC(F)F)c(OCC4CC4)c2)CS3)c1`, the Potency was inconclusive: 7.31 µM [activator, partial curve]. For `COc1cc(C(C)=O)ccc1OCCCOc1cccc2cccnc12`, the Potency was inconclusive: 0.146 µM [activator, single point]. For `COc1ccc(NS(=O)(=O)c2cccc(NC(=O)c3ccc(Cl)nc3)c2)cc1`, the Potency was inconclusive: 20.6 µM [activator, single point]. In the case of `COc1ccc2nc(Nc3nc(CSc4nc5ccccc5[nH]4)cc(=O)[nH]3)nc(C)c2c1`, the Potency is reported as inconclusive: 25.9 µM [activator, single point]. In the case of `CC1CC(C)C[N+](=C2C=C(N3CCCC3)CC(C)(C)C2)C1` (configuration not stated), the Potency is reported as inconclusive: 29.1 µM [activator, single point]. In the case of `COCC1CCN(C(=O)c2ccc3oc(CCCc4ccccc4)nc3c2)C1` (configuration not stated), the Potency is reported as inconclusive: 29.1 µM [activator, single point]. In the case of `CCCCCOC(=O)c1[nH]c2c(c1C)C(=O)C(C(=O)OC)C(C)C2` (configuration not stated), the Potency is reported as inconclusive: 25.9 µM [activator, single point]. For `COc1ccc(-c2cn[nH]c2-c2ccc(OCc3ccccc3)cc2O)cc1OC`, the Potency was inconclusive: 29.1 µM [activator, single point]. In the case of `N#Cc1c(C(F)(F)F)cc(-c2cccc(Cl)c2)[nH]c1=O`, the Potency is reported as inconclusive: 32.6 µM [activator, partial curve, poor fit]. With `COc1ccc(Cn2c(=O)[nH]c3cc(C(=O)NCCCN4CCCC4)ccc3c2=O)cc1` the Potency was inconclusive: 29.1 µM [activator, single point]. For `COc1ccccc1C(=O)COC(=O)c1cc(S(=O)(=O)N2CCCCC2)ccc1N1CCOCC1`, the Potency was inconclusive: 29.1 µM [activator, partial curve, poor fit]. With `BrC(=C\c1ccccc1)/C=N/Nc1nc2ccccc2[nH]1` the Potency was inconclusive: 25.9 µM [activator, partial curve, poor fit]. In the case of `CC(C)c1ccc(S(=O)(=O)c2nnn3c2nc(NCC2CCCO2)c2ccccc23)cc1` (configuration not stated), the re-replication activation is reported as inconclusive: 33.3% [activator]. For `CCC1CCCCN1CC(=O)Nc1cc(C)nn1-c1nc(C)cc(C)n1` (configuration not stated), the Potency was inconclusive: 29.1 µM [activator, single point]. In the case of `Cc1cc(C)nc(SC2CC(=O)N(c3ccc(C)c(C)c3)C2=O)n1` (configuration not stated), the Potency is reported as inconclusive: 16.4 µM [activator, single point].

— PubChem BioAssay AID624297 (National Center for Advancing Translational Sciences (NCATS), 2012)
Potency means the concentration at half of the fitted maximal effect.
